The source of these data is article PMC8525514.

Results are given in words; binding and its absence hold for the method and conditions named. Binding seen in cells or lysates may run through a third protein. Binding calls can cover weak binding; strength is not graded here. Tags and fused reporters may be left off the sequences shown.

This assay has as its target GFP-SAP05 (Aster Yellows phytoplasma strain Witches' Broom (AY-WB; Ca. Phytoplasma asteris)). Description: co-IP; 3XHA-TFs and GFP-SAP05 or GFP co-expressed in N. benthamiana leaves by agroinfiltration; precipitation of GFP-SAP05, blot for HA.

B1: HA-tagged GATA18 (protein, UniProt Q8LC79 1-295)
chain: MMQTPYTTSTQGQYCHSCGMFHHHSQSCCYNNNNNSNAGSYSMVFSMQNGGVFEQNGEDYHHSSSLVDCTLSLGTPSTRLCEEDEKRRRSTSSGASSCISNFWDLIHTKNNNSKTAPYNNVPSFSANKPSRGCSGGGGGGGGGGGGDSLLARRCANCDTTSTPLWRNGPRGPKSLCNACGIRFKKEERRTTAATGNTVVGAAPVQTDQYGHHNSGYNNYHAATNNNNNNGTPWAHHHSTQRVPCNYPANEIRFMDDYGSGVANNVESDGAHGGVPFLSWRLNVADRASLVHDFTR
Take B1: the binding result is “binds”.

B2: HA-tagged SPL5 (protein, UniProt Q9S758 1-181)
chain: MEGQRTQRRGYLKDKATVSNLVEEEMENGMDGEEEDGGDEDKRKKVMERVRGPSTDRVPSRLCQVDRCTVNLTEAKQYYRRHRVCEVHAKASAATVAGVRQRFCQQCSRFHELPEFDEAKRSCRRRLAGHNERRRKISGDSFGEGSGRRGFSGQLIQTQERNRVDRKLPMTNSSFKRPQIR
With B2, the binding result was “binds”.
